Results are given in words; binding and its absence hold for the method and conditions named. Binding seen in cells or lysates may run through a third protein. Some entries that bind do so weakly or less than the wild type. For some of these results: Tags and fused reporters may be left off the sequences shown.
Key:
GFP-ATG13 = target: T1, GFP-ATG13 (UniProt O75143); test: co-IP; GFP-TRAP beads, IP buffer (50 mM Tris pH 7.4, 150 mM NaCl, 5 mM EDTA, 1% Triton X-100); HEK293A cells incubated in ES for 2 h; immunoblot
T1 sequence: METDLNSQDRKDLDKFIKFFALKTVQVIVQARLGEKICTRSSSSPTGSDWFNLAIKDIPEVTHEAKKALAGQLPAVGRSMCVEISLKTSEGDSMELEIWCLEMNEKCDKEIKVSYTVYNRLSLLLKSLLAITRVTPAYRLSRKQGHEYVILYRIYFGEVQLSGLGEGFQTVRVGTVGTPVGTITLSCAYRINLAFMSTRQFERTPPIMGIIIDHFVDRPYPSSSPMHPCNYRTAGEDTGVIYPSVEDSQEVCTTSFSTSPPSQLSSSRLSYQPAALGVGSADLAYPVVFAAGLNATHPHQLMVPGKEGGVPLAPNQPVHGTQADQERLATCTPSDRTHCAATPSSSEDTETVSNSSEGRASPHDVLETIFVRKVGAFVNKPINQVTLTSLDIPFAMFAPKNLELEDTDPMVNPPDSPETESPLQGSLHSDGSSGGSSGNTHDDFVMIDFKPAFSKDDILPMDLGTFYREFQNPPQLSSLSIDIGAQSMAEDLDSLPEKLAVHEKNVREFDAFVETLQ

By UniProt entry, the sequences of proteins in these tests, tags left out.
UniProt Q9UBF8: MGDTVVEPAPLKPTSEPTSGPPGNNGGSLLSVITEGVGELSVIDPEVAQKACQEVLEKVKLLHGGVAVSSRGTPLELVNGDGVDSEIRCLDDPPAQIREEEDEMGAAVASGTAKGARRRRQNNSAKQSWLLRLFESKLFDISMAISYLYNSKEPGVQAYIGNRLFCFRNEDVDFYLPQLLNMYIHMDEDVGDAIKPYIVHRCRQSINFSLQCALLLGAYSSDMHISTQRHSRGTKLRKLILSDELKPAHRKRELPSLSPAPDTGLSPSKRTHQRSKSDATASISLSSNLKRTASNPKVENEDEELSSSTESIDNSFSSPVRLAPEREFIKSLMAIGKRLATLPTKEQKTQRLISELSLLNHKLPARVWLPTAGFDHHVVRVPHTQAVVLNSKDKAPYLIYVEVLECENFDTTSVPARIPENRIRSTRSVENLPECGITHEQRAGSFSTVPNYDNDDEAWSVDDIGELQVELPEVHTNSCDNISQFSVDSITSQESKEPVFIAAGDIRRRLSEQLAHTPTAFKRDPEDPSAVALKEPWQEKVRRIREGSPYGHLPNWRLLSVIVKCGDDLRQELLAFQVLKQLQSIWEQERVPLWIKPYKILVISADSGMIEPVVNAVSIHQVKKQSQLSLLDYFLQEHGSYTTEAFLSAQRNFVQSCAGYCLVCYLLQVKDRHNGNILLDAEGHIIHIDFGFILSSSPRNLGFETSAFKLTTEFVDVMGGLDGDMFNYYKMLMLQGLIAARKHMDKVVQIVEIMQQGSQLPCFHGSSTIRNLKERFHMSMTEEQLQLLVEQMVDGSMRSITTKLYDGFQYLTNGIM
UniProt Q9BTU6: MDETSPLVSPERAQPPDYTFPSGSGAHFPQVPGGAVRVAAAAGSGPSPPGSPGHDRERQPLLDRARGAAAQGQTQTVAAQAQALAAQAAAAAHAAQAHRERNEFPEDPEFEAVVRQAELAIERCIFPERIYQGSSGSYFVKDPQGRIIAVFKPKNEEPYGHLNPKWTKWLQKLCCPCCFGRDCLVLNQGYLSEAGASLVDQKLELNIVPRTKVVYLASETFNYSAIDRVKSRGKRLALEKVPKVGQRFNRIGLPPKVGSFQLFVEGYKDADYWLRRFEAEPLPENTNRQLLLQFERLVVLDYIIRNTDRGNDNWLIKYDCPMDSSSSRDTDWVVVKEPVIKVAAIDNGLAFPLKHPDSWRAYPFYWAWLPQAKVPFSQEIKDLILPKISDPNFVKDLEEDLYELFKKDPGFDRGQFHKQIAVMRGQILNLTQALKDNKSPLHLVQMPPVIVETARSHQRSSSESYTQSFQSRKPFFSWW

[1] = target: T2, ATG9A (human (endogenous in HEK293A)) (UniProt Q7Z3C6); test: co-IP; detergent-solubilized cells; IP buffer (50 mM Tris pH 7.4, 150 mM NaCl, 5 mM EDTA, 1% Triton X-100); rabbit anti-ATG9A or rabbit IgG control on protein A Dynabeads, overnight at 4°C; immunoblot
T2 sequence: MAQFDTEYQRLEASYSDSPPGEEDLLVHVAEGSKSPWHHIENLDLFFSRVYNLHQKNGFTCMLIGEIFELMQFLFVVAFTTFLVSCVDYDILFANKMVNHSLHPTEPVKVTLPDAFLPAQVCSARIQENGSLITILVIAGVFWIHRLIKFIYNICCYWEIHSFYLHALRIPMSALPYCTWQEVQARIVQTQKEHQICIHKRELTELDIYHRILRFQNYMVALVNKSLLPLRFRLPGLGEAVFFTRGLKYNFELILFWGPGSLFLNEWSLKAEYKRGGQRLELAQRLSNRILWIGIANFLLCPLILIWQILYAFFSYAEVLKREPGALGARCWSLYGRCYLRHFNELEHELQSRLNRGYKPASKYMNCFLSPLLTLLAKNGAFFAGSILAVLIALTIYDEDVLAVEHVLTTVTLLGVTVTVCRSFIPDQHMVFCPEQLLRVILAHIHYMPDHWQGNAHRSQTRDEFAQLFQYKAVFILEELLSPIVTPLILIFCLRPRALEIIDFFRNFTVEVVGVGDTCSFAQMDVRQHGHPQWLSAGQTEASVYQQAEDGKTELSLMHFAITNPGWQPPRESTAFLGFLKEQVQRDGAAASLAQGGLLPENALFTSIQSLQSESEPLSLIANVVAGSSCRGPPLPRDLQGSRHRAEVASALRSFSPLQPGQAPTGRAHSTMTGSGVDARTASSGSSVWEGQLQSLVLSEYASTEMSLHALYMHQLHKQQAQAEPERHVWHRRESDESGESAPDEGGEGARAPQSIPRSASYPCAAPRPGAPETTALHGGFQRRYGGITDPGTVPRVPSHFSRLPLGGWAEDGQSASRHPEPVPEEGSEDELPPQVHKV

Row | binding (GFP-ATG13) | binding [1] | Substance
1 | binds | binds | PI4KIIIβ (from UniProt Q9UBF8 1-816) (enzyme)
2 |  | binds | PI4KIIα (from UniProt Q9BTU6 1-479) (enzyme)
3 | binds |  | activated PI4KIIIβ pSer294 (from UniProt Q9UBF8 1-816) (enzyme)

From publication PMC6504893
